# Assay results reported in the supplement of paper PMC8728848.
# This is one part of the list.
# Assays:
# Test in all cases: glycan array binding signal (z-score within array); higher = stronger binding
# Settings in all cases: glycan notation: IUPAC condensed, linker removed
# Fuc(a1-2)Gal = molecular target: Fuc(a1-2)Gal
# Summary of the method: (§1)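 Columns mapping to the same glycan were averaged after glycan names were converted to IUPAC-condensed notation. The data come from 3228 arrays in the Consortium for Functional Glycomics database, limited to those with an available protein sequence. Binding is reported as a within-array Z-score averaged across arrays of one protein sequence and across linkers.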
# Fuc(a1-2)Gal(b1-3)GalNAc = molecular target: Fuc(a1-2)Gal(b1-3)GalNAc
# Summary of the method: as §1
# [1] = molecular target: Fuc(a1-2)Gal(b1-3)GalNAc(a1-3)[Fuc(a1-2)]Gal(b1-4)Glc
# Summary of the method: as §1
# [2] = molecular target: Fuc(a1-2)Gal(b1-3)GalNAc(a1-3)[Fuc(a1-2)]Gal(b1-4)GlcNAc
# Summary of the method: as §1
# [3] = molecular target: Fuc(a1-2)Gal(b1-3)GalNAc(b1-3)Gal
# Summary of the method: as §1
# [4] = molecular target: Fuc(a1-2)Gal(b1-3)GalNAc(b1-3)Gal(a1-4)Gal(b1-4)Glc
# Summary of the method: as §1
# [5] = molecular target: Fuc(a1-2)Gal(b1-3)GalNAc(b1-4)[Neu5Ac(a2-3)]Gal(b1-4)Glc
# Summary of the method: as §1
# Fuc(a1-2)Gal(b1-3)GlcNAc = molecular target: Fuc(a1-2)Gal(b1-3)GlcNAc
# Summary of the method: as §1
# [6] = molecular target: Fuc(a1-2)Gal(b1-3)GlcNAc(b1-2)Man(a1-3)[Fuc(a1-2)Gal(b1-3)GlcNAc(b1-2)Man(a1-6)]Man(b1-4)GlcNAc(b1-4)GlcNAc
# Summary of the method: as §1
# [7] = molecular target: Fuc(a1-2)Gal(b1-3)GlcNAc(b1-2)Man(a1-3)[Fuc(a1-2)Gal(b1-3)GlcNAc(b1-2)Man(a1-6)]Man(b1-4)GlcNAc(b1-4)[Fuc(a1-6)]GlcNAc
# Summary of the method: as §1
# [8] = molecular target: Fuc(a1-2)Gal(b1-3)GlcNAc(b1-3)Gal(b1-4)Glc
# Summary of the method: as §1
# [9] = molecular target: Fuc(a1-2)Gal(b1-3)GlcNAc(b1-3)GalNAc
# Summary of the method: as §1
# [10] = molecular target: Fuc(a1-2)Gal(b1-3)GlcNAc(b1-3)[Fuc(a1-2)Gal(b1-3)GlcNAc(b1-6)]GalNAc
# Summary of the method: as §1
# [11] = molecular target: Fuc(a1-2)Gal(b1-3)GlcNAc(b1-3)[Gal(b1-4)GlcNAc(b1-6)]Gal(b1-4)Glc
# Summary of the method: as §1
# [12] = molecular target: Fuc(a1-2)Gal(b1-3)GlcNAc(b1-3)[Neu5Ac(a2-6)Gal(b1-4)GlcNAc(b1-6)]Gal(b1-4)Glc
# Summary of the method: as §1
# [13] = molecular target: Fuc(a1-2)Gal(b1-3)GlcNAc6S
# Summary of the method: as §1
# [14] = molecular target: Fuc(a1-2)Gal(b1-3)[Fuc(a1-4)]GlcNAc
# Summary of the method: as §1
# [15] = molecular target: Fuc(a1-2)Gal(b1-3)[Fuc(a1-4)]GlcNAc(b1-2)Man(a1-3)[Fuc(a1-2)Gal(b1-3)[Fuc(a1-4)]GlcNAc(b1-2)Man(a1-3)]Man(b1-4)GlcNAc(b1-4)GlcNAc
# Summary of the method: as §1
# [16] = molecular target: Fuc(a1-2)Gal(b1-3)[Fuc(a1-4)]GlcNAc(b1-2)Man(a1-3)[Fuc(a1-2)Gal(b1-3)[Fuc(a1-4)]GlcNAc(b1-2)Man(a1-6)]Man(b1-4)GlcNAc(b1-4)[Fuc(a1-6)]GlcNAc(b1-4)[Fuc(a1-6)]GlcNAc
# Summary of the method: as §1
# [17] = molecular target: Fuc(a1-2)Gal(b1-3)[Fuc(a1-4)]GlcNAc(b1-3)[Fuc(a1-3)[Gal(b1-4)]GlcNAc(b1-6)]Gal(b1-4)Glc
# Summary of the method: as §1
# [18] = molecular target: Fuc(a1-2)Gal(b1-3)[Fuc(a1-4)]GlcNAc(b1-3)[Gal(b1-4)GlcNAc(b1-6)]Gal(b1-4)Glc
# Summary of the method: as §1
# Fuc(a1-2)Gal(b1-4)Glc = molecular target: Fuc(a1-2)Gal(b1-4)Glc
# Summary of the method: as §1
# Fuc(a1-2)Gal(b1-4)Glc6S = molecular target: Fuc(a1-2)Gal(b1-4)Glc6S
# Summary of the method: as §1
# Fuc(a1-2)Gal(b1-4)GlcNAc = molecular target: Fuc(a1-2)Gal(b1-4)GlcNAc
# Summary of the method: as §1
# [19] = molecular target: Fuc(a1-2)Gal(b1-4)GlcNAc(b1-2)Man
# Summary of the method: as §1
# [20] = molecular target: Fuc(a1-2)Gal(b1-4)GlcNAc(b1-2)Man(a1-3)[Fuc(a1-2)Gal(b1-4)GlcNAc(b1-2)Man(a1-6)]Man(b1-4)GlcNAc(b1-4)GlcNAc
# Summary of the method: as §1
# [21] = molecular target: Fuc(a1-2)Gal(b1-4)GlcNAc(b1-2)Man(a1-3)[Fuc(a1-2)Gal(b1-4)GlcNAc(b1-2)Man(a1-6)]Man(b1-4)GlcNAc(b1-4)[Fuc(a1-6)]GlcNAc
# Summary of the method: as §1
# [22] = molecular target: Fuc(a1-2)Gal(b1-4)GlcNAc(b1-2)[Fuc(a1-2)Gal(b1-4)GlcNAc(b1-4)]Man(a1-3)[Fuc(a1-2)Gal(b1-4)GlcNAc(b1-2)Man(a1-6)]Man(b1-4)GlcNAc(b1-4)GlcNAc
# Summary of the method: as §1
# [23] = molecular target: Fuc(a1-2)Gal(b1-4)GlcNAc(b1-3)Gal(b1-4)GlcNAc
# Summary of the method: as §1
# [24] = molecular target: Fuc(a1-2)Gal(b1-4)GlcNAc(b1-3)Gal(b1-4)GlcNAc(b1-2)Man(a1-3)[Fuc(a1-2)Gal(b1-4)GlcNAc(b1-3)Gal(b1-4)GlcNAc(b1-2)Man(a1-6)]Man(b1-4)GlcNAc(b1-4)GlcNAc
# Summary of the method: as §1
# [25] = molecular target: Fuc(a1-2)Gal(b1-4)GlcNAc(b1-3)Gal(b1-4)GlcNAc(b1-3)Gal(b1-4)GlcNAc
# Summary of the method: as §1
# [26] = molecular target: Fuc(a1-2)Gal(b1-4)GlcNAc(b1-3)GalNAc
# Summary of the method: as §1
# [27] = molecular target: Fuc(a1-2)Gal(b1-4)GlcNAc(b1-3)[Fuc(a1-2)Gal(b1-4)GlcNAc(b1-6)]GalNAc
# Summary of the method: as §1
# [28] = molecular target: Fuc(a1-2)Gal(b1-4)GlcNAc(b1-3)[Fuc(a1-3)[Gal(b1-4)]GlcNAc(b1-6)]Gal(b1-4)Glc
# Summary of the method: as §1
# [29] = molecular target: Fuc(a1-2)Gal(b1-4)GlcNAc(b1-6)GalNAc
# Summary of the method: as §1
# [30] = molecular target: Fuc(a1-2)Gal(b1-4)GlcNAc6S
# Summary of the method: as §1
# [31] = molecular target: Fuc(a1-2)Gal(b1-4)[Fuc(a1-3)]GlcNAc
# Summary of the method: as §1
# [32] = molecular target: Fuc(a1-2)Gal(b1-4)[Fuc(a1-3)]GlcNAc(b1-2)Man(a1-3)[Fuc(a1-2)Gal(b1-4)[Fuc(a1-3)]GlcNAc(b1-2)Man(a1-6)]Man(b1-4)GlcNAc(b1-4)[Fuc(a1-6)]GlcNAc
# Summary of the method: as §1
# [33] = molecular target: Fuc(a1-2)Gal(b1-4)[Fuc(a1-3)]GlcNAc(b1-2)[Fuc(a1-2)Gal(b1-4)[Fuc(a1-3)]GlcNAc(b1-4)]Man(a1-3)[Fuc(a1-2)Gal(b1-4)[Fuc(a1-3)]GlcNAc(b1-2)Man(a1-6)]Man(b1-4)GlcNAc(b1-4)GlcNAc
# Summary of the method: as §1
# [34] = molecular target: Fuc(a1-2)Gal(b1-4)[Fuc(a1-3)]GlcNAc(b1-3)Gal(b1-4)[Fuc(a1-3)]GlcNAc
# Summary of the method: as §1
# [35] = molecular target: Fuc(a1-2)Gal(b1-4)[Fuc(a1-3)]GlcNAc(b1-3)Gal(b1-4)[Fuc(a1-3)]GlcNAc(b1-3)Gal(b1-4)[Fuc(a1-3)]GlcNAc
# Summary of the method: as §1
# [36] = molecular target: Fuc(a1-2)Gal(b1-4)[Fuc(a1-3)]GlcNAc(b1-3)GalNAc
# Summary of the method: as §1
# [37] = molecular target: Fuc(a1-2)Gal(b1-4)[Fuc(a1-3)]GlcNAc(b1-3)[Neu5Ac(a2-6)Gal(b1-4)GlcNAc(b1-6)]Gal(b1-4)Glc
# Summary of the method: as §1
# [38] = molecular target: Fuc(a1-2)Gal3S(b1-4)GlcNAc
# Summary of the method: as §1
# [39] = molecular target: Fuc(a1-2)Gal6S(b1-3)GlcNAc
# Summary of the method: as §1
binder,measurement,setting,value
LlpB (Pseudomonas fluorescens) (protein) MGSSHHHHHHSSGLVPRGSHMASSGFRIILFNSANNGTAILPPRNCLVAGQYLESPSKRYKLILEADGNLRLYDNGVPIWVADSSVPYTYVDNRPNTNLVTCFYMQGSAFLVDRVGSRTWATIGDWIDGAADRAYLQVQDDGNVVVVDGVPRWARFGFTPAALPNRGVFYPDHGTGPLPSFPVWSWTF,glycan array binding signal (z-score),Fuc(a1-2)Gal,-0.044
same,glycan array binding signal (z-score),Fuc(a1-2)Gal(b1-3)GalNAc,-0.631
same,glycan array binding signal (z-score),[1],-1.67
same,glycan array binding signal (z-score),[2],-0.569
same,glycan array binding signal (z-score),[3],-0.59
same,glycan array binding signal (z-score),[4],-0.376
same,glycan array binding signal (z-score),[5],0.297
same,glycan array binding signal (z-score),Fuc(a1-2)Gal(b1-3)GlcNAc,-0.061
same,glycan array binding signal (z-score),[6],-1.16
same,glycan array binding signal (z-score),[7],-0.114
same,glycan array binding signal (z-score),[8],0.091
same,glycan array binding signal (z-score),[9],0.052
same,glycan array binding signal (z-score),[10],-0.412
same,glycan array binding signal (z-score),[11],0.218
same,glycan array binding signal (z-score),[12],-0.611
same,glycan array binding signal (z-score),[13],1.11
same,glycan array binding signal (z-score),[14],1.05
same,glycan array binding signal (z-score),[15],-1.13
same,glycan array binding signal (z-score),[16],-0.776
same,glycan array binding signal (z-score),[17],-1.23
same,glycan array binding signal (z-score),[18],0.129
same,glycan array binding signal (z-score),Fuc(a1-2)Gal(b1-4)Glc,0.167
same,glycan array binding signal (z-score),Fuc(a1-2)Gal(b1-4)Glc6S,0.68
same,glycan array binding signal (z-score),Fuc(a1-2)Gal(b1-4)GlcNAc,-0.373
same,glycan array binding signal (z-score),[19],-0.348
same,glycan array binding signal (z-score),[20],0.482
same,glycan array binding signal (z-score),[21],0.033
same,glycan array binding signal (z-score),[22],-0.173
same,glycan array binding signal (z-score),[23],0.485
same,glycan array binding signal (z-score),[24],1.46
same,glycan array binding signal (z-score),[25],2.58
same,glycan array binding signal (z-score),[26],2.13
same,glycan array binding signal (z-score),[27],-0.481
same,glycan array binding signal (z-score),[28],-0.33
same,glycan array binding signal (z-score),[29],0.91
same,glycan array binding signal (z-score),[30],0.572
same,glycan array binding signal (z-score),[31],0.594
same,glycan array binding signal (z-score),[32],-0.049
same,glycan array binding signal (z-score),[33],1.92
same,glycan array binding signal (z-score),[34],-0.086
same,glycan array binding signal (z-score),[35],0.051
same,glycan array binding signal (z-score),[36],-0.008
same,glycan array binding signal (z-score),[37],0.032
same,glycan array binding signal (z-score),[38],-0.965
same,glycan array binding signal (z-score),[39],-0.264

# In a second layout: entries from further up.
binder | measurement | setting | value
LlpB (Pseudomonas fluorescens) (protein) MGSSHHHHHHSSGLVPRGSHMASSGFRIILFNSANNGTAILPPRNCLVAGQYLESPSKRYKLILEADGNLRLYDNGVPIWVADSSVPYTYVDNRPNTNLVTCFYMQGSAFLVDRVGSRTWATIGDWIDGAADRAYLQVQDDGNVVVVDGVPRWARFGFTPAALPNRGVFYPDHGTGPLPSFPVWSWTF | glycan array binding signal (z-score) | [6] | -1.16
same | glycan array binding signal (z-score) | [15] | -1.13
same | glycan array binding signal (z-score) | [30] | 0.572
